According to PMC9972587, “SIRT2-PFKP interaction dysregulates phagocytosis in macrophages with acute ethanol-exposure” (Frontiers in Immunology, 2022):
No constants are given. Whether binding was seen depends on the method and setting. Binding seen in cells or lysates may run through a third protein. Some binding calls cover weakened binding; strength is not graded here.

Target: T1, Sirtuin 2 (SIRT2), endogenous in RAW 264.7 cell macrophages (mouse (endogenous in RAW 264.7)) (UniProt Q8VDQ8)
T1 sequence: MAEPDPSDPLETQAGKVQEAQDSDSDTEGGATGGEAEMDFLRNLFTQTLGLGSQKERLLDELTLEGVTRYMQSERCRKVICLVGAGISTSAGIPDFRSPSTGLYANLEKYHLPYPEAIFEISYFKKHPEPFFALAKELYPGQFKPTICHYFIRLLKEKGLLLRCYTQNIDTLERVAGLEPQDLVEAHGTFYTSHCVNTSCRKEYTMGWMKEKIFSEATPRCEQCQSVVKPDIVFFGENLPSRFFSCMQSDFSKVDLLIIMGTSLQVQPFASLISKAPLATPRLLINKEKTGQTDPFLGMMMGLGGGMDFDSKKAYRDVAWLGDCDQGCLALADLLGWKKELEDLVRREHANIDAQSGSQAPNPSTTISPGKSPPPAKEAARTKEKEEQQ
Experiment: co-IP; RAW 264.7 cell macrophages ± LPS (100 ng/mL, 4 h); whole-cell lysate; IP with anti-SIRT2 antibody, immunoblot of PFKP and SIRT2; isotype IgG control as negative control

B1: Phosphofructokinase-platelet isoform (PFKP), endogenous in RAW 264.7 cell macrophages (enzyme, UniProt Q9WUA3 1-784)
chain: MSDLDSSSSSAYPKYLEHLSGDGKAIGVLTSGGDAQGMNAAVRAVVRMGIYTGAKVYFIYEGYQGLVDGGSNIVEAKWDCVSSILQVGGTIIGSARCKAFRSREGRLKAACNLARLGITNLCVIGGDGSLTGANLFRKEWSGLLEELARNGDIDNDTVQKYSYLNVVGMVGSIDNDFCGTDMTIGTDSALHRIIEVVDAIMTTAQSHQRTFVLEVMGRHCGYLALVSALTCGADWVFLPESPPEEDWEENMCLKLSENRARKKRLNIIIVSEGAIDMQNKPITSEKIKELVVKNLGFDTRVTILGHVQRGGTPSAFDRILASRMGVEAVIALLEATPETPACVVSLRGNQAVRLPLMECVQMTQDVQKAMDERRFKEAVKLRGRRFEGNLNTYKRLAIKLPDEKIVKSNCNVAVINVGAPAAGMNAAVRSAVRVGIADGHKMFAIYDGFEGFANGQIKEIGWADVGGWTGQGGSILGTKRTLPGKYLEKIAEQMHSHSINALLIIGGFEAYLGLLELAAAREKHEAFCVPMVMVPATVSNNVPGSDFSIGADTALNTITDTCDRIKQSASGTKRRVFIIETMGGYCGYLANMGALAAGADAAYIFEEPFDIGDLQSNVVHLTEKMKTSIQRGLVLRNESCSVNYTTDFIYQLYSEEGKGVFDCRKNVLGHMQQGGAPSPFDRNFGTKISAKAMEWISAKLKGSQGTGKKFVSDDSICVLGICKRDLLFQPVAELKKVTDFEHRIPKEQWWLKLRPIMKILAKYEASYDMSDSGKLESLQHHEEL
With B1 the binding was “binds”.
